Laboratory results reported in the supplement of paper PMC11546906.
Structures can show the parent of a compound that is named as a salt. The list shows a part of the results. Single values are uncertain here, since repeats match poorly.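 FDA-approved drugs were each paired with colistin at one-eighth its MIC and screened against a multidrug-resistant, mcr-1-positive clinical E. coli isolate, with OD600 read after 24 h. Drug-free bacteria served as growth control, plain broth as blank. Combinations were active if OD600 dropped below 0.2.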

These compounds were tested on Escherichia coli 42 (mcr-1-positive clinical isolate) (assay: OD600 after 24 h growth with compound plus colistin (absorbance units (OD600)); higher = more bacterial growth (less inhibition)). Settings: first compound 25 µM; colistin concentration 0.5 ug/mL; incubation time 24 h; 37 °C.

OD600, inactive:
OCCN(CCO)c1nc(N2CCCCC2)c2nc(N(CCO)CCO)nc(N3CCCCC3)c2n1 [Dipyridamole] + CCC(C)CCCC(=O)N[C@@H](CCN)C(=O)N[C@H](C(=O)N[C@@H](CCN)C(=O)N[C@H]1CCNC(=O)[C@H]([C@@H](C)O)NC(=O)[C@H](CCN)NC(=O)[C@H](CCN)NC(=O)[C@H](CC(C)C)NC(=O)[C@@H](CC(C)C)NC(=O)[C@H](CCN)NC1=O)[C@@H](C)O [colistin] 0.858
C[C@]12CC[C@@H]3c4ccc(O)cc4CC[C@H]3[C@@H]1CC[C@@H]2O [Estradiol] + CCC(C)CCCC(=O)N[C@@H](CCN)C(=O)N[C@H](C(=O)N[C@@H](CCN)C(=O)N[C@H]1CCNC(=O)[C@H]([C@@H](C)O)NC(=O)[C@H](CCN)NC(=O)[C@H](CCN)NC(=O)[C@H](CC(C)C)NC(=O)[C@@H](CC(C)C)NC(=O)[C@H](CCN)NC1=O)[C@@H](C)O [colistin] 1.11
CC(=O)OCC(=O)[C@@]1(O)CC[C@H]2[C@@H]3CCC4=CC(=O)CC[C@]4(C)[C@@]3(F)[C@@H](O)C[C@@]21C [Fludrocortisone acetate] + CCC(C)CCCC(=O)N[C@@H](CCN)C(=O)N[C@H](C(=O)N[C@@H](CCN)C(=O)N[C@H]1CCNC(=O)[C@H]([C@@H](C)O)NC(=O)[C@H](CCN)NC(=O)[C@H](CCN)NC(=O)[C@H](CC(C)C)NC(=O)[C@@H](CC(C)C)NC(=O)[C@H](CCN)NC1=O)[C@@H](C)O [colistin] 0.979
CC(C)NCC(O)c1ccc(NS(C)(=O)=O)cc1 (stereo unspecified) [Sotalol hydrochloride] + CCC(C)CCCC(=O)N[C@@H](CCN)C(=O)N[C@H](C(=O)N[C@@H](CCN)C(=O)N[C@H]1CCNC(=O)[C@H]([C@@H](C)O)NC(=O)[C@H](CCN)NC(=O)[C@H](CCN)NC(=O)[C@H](CC(C)C)NC(=O)[C@@H](CC(C)C)NC(=O)[C@H](CCN)NC1=O)[C@@H](C)O [colistin] 1.09
C=C1CCN([C@H](C)[C@](O)(Cn2cncn2)c2ccc(F)cc2F)CC1 [Efinaconazole] + CCC(C)CCCC(=O)N[C@@H](CCN)C(=O)N[C@H](C(=O)N[C@@H](CCN)C(=O)N[C@H]1CCNC(=O)[C@H]([C@@H](C)O)NC(=O)[C@H](CCN)NC(=O)[C@H](CCN)NC(=O)[C@H](CC(C)C)NC(=O)[C@@H](CC(C)C)NC(=O)[C@H](CCN)NC1=O)[C@@H](C)O [colistin] 0.764
N[C@@H](Cc1cc(I)c(Oc2ccc(O)c(I)c2)c(I)c1)C(=O)O [Liothyronine sodium] + CCC(C)CCCC(=O)N[C@@H](CCN)C(=O)N[C@H](C(=O)N[C@@H](CCN)C(=O)N[C@H]1CCNC(=O)[C@H]([C@@H](C)O)NC(=O)[C@H](CCN)NC(=O)[C@H](CCN)NC(=O)[C@H](CC(C)C)NC(=O)[C@@H](CC(C)C)NC(=O)[C@H](CCN)NC1=O)[C@@H](C)O [colistin] 1.04

As a short view, part of the list above.
OD600, inactive:
OCCN(CCO)c1nc(N2CCCCC2)c2nc(N(CCO)CCO)nc(N3CCCCC3)c2n1 [Dipyridamole] + CCC(C)CCCC(=O)N[C@@H](CCN)C(=O)N[C@H](C(=O)N[C@@H](CCN)C(=O)N[C@H]1CCNC(=O)[C@H]([C@@H](C)O)NC(=O)[C@H](CCN)NC(=O)[C@H](CCN)NC(=O)[C@H](CC(C)C)NC(=O)[C@@H](CC(C)C)NC(=O)[C@H](CCN)NC1=O)[C@@H](C)O [colistin] 0.858
C[C@]12CC[C@@H]3c4ccc(O)cc4CC[C@H]3[C@@H]1CC[C@@H]2O [Estradiol] + CCC(C)CCCC(=O)N[C@@H](CCN)C(=O)N[C@H](C(=O)N[C@@H](CCN)C(=O)N[C@H]1CCNC(=O)[C@H]([C@@H](C)O)NC(=O)[C@H](CCN)NC(=O)[C@H](CCN)NC(=O)[C@H](CC(C)C)NC(=O)[C@@H](CC(C)C)NC(=O)[C@H](CCN)NC1=O)[C@@H](C)O [colistin] 1.11
